A short description of the assay: qHTS Assay for Lipid Storage Modulators in Drosophila S3 Cells.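 As to cell number change: cells counted by Cell Tracker Red CMTPX staining in the red channel.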 As to conditions: BODIPY lipid droplet fluorescence, 18-24 h; for cell number change: measured here: cell count max response, cells fed with added oleic acid. The procedure, abridged:
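Drosophila S3 cells loaded with oleic acid (400 uM, as added) and compounds at several concentrations; lipid droplets imaged by 488-nm laser-scanning cytometry, 500–530 nm intensity and object ratio to cell channel. Percent activity normalized to 20 uM Triacsin C.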

Where [1] appears, read: measured here: lipid fluorescence (Fed channel) AC50, cells fed with added oleic acid.
Setting [2] is: measured here: cell number channel AC50, cells fed with added oleic acid.

This is one part of the list. Shown are side measurements of this screen, not its main read-out; they come without a call. The list favours compounds with an active or inconclusive main result. Words in brackets tell the shape of the fitted curve; partial curves, single points and poor fits give uncertain potencies.

`CC(C)(Cl)[N+](=O)[O-]`: the cell number change was -7.12%. Further, under setting [1], the AC50 is 1.64 µM [rising, partial curve, poor fit].
With `O=P(N1CCCCC1)(N1CCCCC1)C(Cl)(Cl)Cl`, the cell number change is -22.9%. Moreover, the AC50 under setting [2] was 0.731 µM [falling, full curve, poor fit]. Under setting [1], the AC50 was 0.146 µM [falling, full curve, poor fit].
`C=CCN1C(=O)/C(=C/c2cccs2)C(=O)NC1=S`: the cell number change is -48.4%. Further, the AC50 under setting [2] is 18.4 µM [falling, single point]. Further, the AC50 under setting [1] was 16.4 µM [falling, partial curve].
Turning to `O=C(/C=C/c1ccc2c(c1)OCO2)c1c(O)n(CCc2ccccc2)c(=O)[nH]c1=O`, the cell number change was 24.5%. For the same molecule, the AC50 under setting [1] is 5.8 µM [rising, partial curve].
For `N=c1c[n+](CC23CC4CC(CC(C4)C2)C3)[n-]o1`, the cell number change is -6.53%. Further, under setting [1], the AC50 was 5.17 µM [falling, full curve].
Turning to `CCOc1ccc(N2C(=O)/C(=C\c3cccs3)C(=O)NC2=S)cc1`, the cell number change was -29.2%.
Regarding `COc1ccc(C(=O)C2CCCN(C3CSCCSC3)C2)c(C)c1` (configuration not stated), the cell number change is -9.54%.
For the molecule `CCn1c(O)c(/C=N/N2CCOCC2)c(=O)n(CC)c1=S`, the cell number change is -1.9%. In addition, the AC50 under setting [2] was 6.51 µM [rising, single point].
With `COC(=O)C1=C(c2ccc(F)cc2F)C[C@@H]2CC[C@H]1N2C(=O)NC(C)C`, the cell number change is -3.97%. Besides, the AC50 under setting [1] was 29.1 µM [rising, single point].
As for `Fc1ccc(CCNCc2ccccc2Cl)cc1`, the cell number change came out at 37.7%. Besides, the AC50 under setting [2] is 11.6 µM [rising, single point].
Take `C#C[C@]1(O)CCC2C3CCC4=C/C(=N/OCC(=O)NC(C)C(=O)NC(CCSC)C(=O)O)CC[C@]4(C)C3CC[C@@]21C` (some centres not stated): the cell number change was determined as 14%. In addition, under setting [1], the AC50 is 0.259 µM [rising, full curve].
Turning to `CC1CCCC(C)N1/N=C/c1c[nH]c2ccc(Br)cc12` (configuration not stated), the cell number change is -61.9%. Besides, under setting [2], the AC50 was 16.4 µM [falling, single point]. Moreover, the AC50 under setting [1] is 20.6 µM [falling, single point].
For the molecule `CON(C)C(=O)Nc1ccc(Cl)cc1`, the cell number change is -177%. Under setting [2], the AC50 was 18.4 µM [falling, partial curve]. Besides, the AC50 under setting [1] is 0.103 µM [falling, full curve, poor fit].
Regarding `O=C(CCl)NCC1CCCO1` (configuration not stated), the cell number change was 70.1%.
As to `CCn1c(O)c(C=Nc2cc(Cl)ccc2Cl)c(=O)n(CC)c1=O`, the cell number change is 21.1%. Besides, the AC50 under setting [1] was 10.3 µM [rising, partial curve, poor fit].
Take `CSCCC(N=Cc1c(O)n(-c2ccc(Cl)cc2)c(=O)[nH]c1=O)C(=O)OC(C)(C)C` (configuration not stated): the AC50 under setting [1] is 6.51 µM [falling, single point].
Take `Fc1ccc(C[n+]2c(-c3ccccc3)cc(-c3ccccc3)cc2-c2ccccc2)cc1`: the AC50 under setting [2] is 6.51 µM [falling, single point] and the AC50 under setting [1] was 2.06 µM [falling, partial curve].
As for `N/C(=N\N=C/c1ccc(-c2ccc(O)c(C(=O)O)c2)o1)N[N+](=O)[O-]`, the cell number change is -15.8%.
Consider `Cc1cccc2c1N(N=O)CCC2`, for which the cell number change amounted to 7.11%. Moreover, the AC50 under setting [1] was 29.1 µM [rising, single point].
For the molecule `CN(C)CP(=O)(O)CN(C)C=O`, the cell number change was -1.88%. Under setting [1], the concentration at half-maximal activity (AC50) is 32.6 µM [falling, partial curve].
On to `Cc1cccc(OP(N)(=O)Oc2cccc(C)c2)c1`, for which the cell number change is 23.9%. Moreover, the AC50 under setting [1] was 0.092 µM [falling, full curve, poor fit].
Consider `Cc1c(C(c2ccc(F)cc2)c2c(O)c3ccccc3oc2=O)c(=O)n(-c2ccccc2)n1C` (configuration not stated), for which the cell number change came to 12.2%. The AC50 under setting [1] was 32.6 µM [rising, single point].
In the case of `COc1ccc(CCC(C)NCCc2ccccc2)cc1` (configuration not stated), the cell number change is -56.3%. Further, the AC50 under setting [2] is 23.1 µM [falling, single point].
For the molecule `CCCOc1ccc(N2C(=O)CC(N3CC=C(c4ccccc4)CC3)C2=O)cc1` (configuration not stated), the cell number change is -1.83%.
Take `Cn1cc(C(=O)OCC(=O)NC2(C#N)CCCCC2)c2ccccc21`: the cell number change is -40.1%. Under setting [2], the AC50 is 32.6 µM [falling, single point].
For `CCC1C(c2ccccc2)NC(c2ccccc2)CC1(O)c1ccc(F)cc1` (configuration not stated), the cell number change is -36.6%. Besides, under setting [2], the AC50 is 0.164 µM [falling, full curve, poor fit]. Besides, the AC50 under setting [1] was 29.1 µM [falling, single point].
As for `Cc1ccc(-n2nc(C)c3c2NC(=O)CSC3c2ccc3c(c2)OCO3)cc1` (configuration not stated), the cell number change was -2.55%.
`COC(=O)C1=C(c2cccc(OCc3ccccc3)c2)C[C@@H]2CC[C@H]1N2C(=O)NCc1ccc(OC)cc1`: the cell number change is -12.9%. For the same molecule, the AC50 under setting [1] is 0.92 µM [falling, single point].
Consider `COc1ccccc1C1CC2CCC(C1OC(C)=O)N2Cc1ccccc1` (configuration not stated), for which the cell number change is -19.8%. In addition, the AC50 under setting [1] was 1.46 µM [falling, partial curve].
With `COC(=O)c1c(C)[nH]c(C(=O)C(Cc2ccccc2)N(C)C)c1C` (configuration not stated), the cell number change turned out to be 25.6%. In addition, the AC50 under setting [1] was 2.06 µM [rising, partial curve].
On to `c1ccc(-c2ccc(C(c3ccccc3)n3ccnc3)cc2)cc1` (configuration not stated), for which the AC50 under setting [2] is 18.4 µM [falling, single point].
Take `CCC(=O)Nc1ccc(N2CCN(CC)CC2)c(Cl)c1`: the cell number change is -5.71%. Besides, under setting [1], the AC50 was 29.1 µM [rising, single point].
With `COC(=O)C(O)(c1c[nH]c2ccccc12)C(F)(F)F` (configuration not stated), the cell number change turned out to be 9.77%.
`CC(=O)O[C@H]1[C@H]2O[C@]23[C@@H]2CC[C@]4(O)C[C@@H](O)CC[C@]4(C)C2CC[C@]3(C)[C@H]1c1ccc(=O)oc1` (some centres not stated): the cell number change was -2.53%. Also, the AC50 under setting [1] is 1.84 µM [rising, partial curve].
In the case of `Cc1ccccc1-n1c(O)c(C=NCCN2CCOCC2)c(=O)[nH]c1=O`, the cell number change was -36.2%. Besides, the AC50 under setting [2] is 4.11 µM [falling, full curve]. Further, the AC50 under setting [1] is 29.1 µM [falling, single point].
Consider `O=c1cc(C2CCNCC2)[nH][nH]1`, for which the cell number change is 6.98%. In addition, the AC50 under setting [1] is 29.1 µM [falling, partial curve].
With `COc1ccc(CN2C(=O)NC(=O)/C(=C/c3cc(OC)c(OC)c(OC)c3)C2=O)cc1`, the cell number change came out at 49.5%. The AC50 under setting [2] was 29.1 µM [rising, single point].
With `CCn1c(C)c(C(=O)Nc2ccc(OC)cc2)c2cc(OC)ccc21`, the cell number change was found to be 13.8%. Moreover, the AC50 under setting [1] was 2.59 µM [rising, full curve, poor fit].
With `Cc1ccc2[nH]c(C)c(CCNCc3cccnc3)c2c1`, the cell number change stood at 11.3%.
As to `O=c1[nH]c(=O)n(Cc2ccco2)c(O)c1/C=N/N1CCCCCC1`, the cell number change is 30.9%. Further, the AC50 under setting [2] is 20.6 µM [rising, single point]. For the same molecule, the AC50 under setting [1] was 18.4 µM [rising, partial curve, poor fit].

The values are drawn from PubChem BioAssay AID2685 (National Center for Advancing Translational Sciences (NCATS), 2010).
